PubChem BioAssay AID1259254 – NCATS – 2017
Assay: 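Finding genes that stop cells copying their DNA twice in one cycle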 (primary screen). System: human HCT116 colorectal cancer cells. Knock-down reagent: single siRNA against human genes. Time to read-out: 3 days. Read-out: 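Imaged Hoechst DNA stain sorts each cell into a cycle phase by DNA amount; per plate, G2 fraction set to 0% for non-targeting and 100% for GMNN siRNA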. Reading the numbers: G2 robust z-score and G2 cells, % of GMNN control: higher = more G2 cells, more excess DNA replication; raw share of cells in G2: higher = larger share of cells with G2 DNA content. Hit rule: 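An siRNA counts as active if its G2 robust z-score lies at least 5 MADs above the screen median; here such calls match roughly 38% of GMNN control or more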.
The deposit covers about 59,000 reagents; below is a random part of them. In the full data, about 1,550 (2.6%) got an active call. 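G2 share is only a proxy for re-replication; each gene was hit by three separate siRNAs, and active genes were retested.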 Raw values vary from plate to plate and are shown uncorrected. Entries without a mark were called inactive. Reagents against one gene are numbered here. The record does not give: the amount of reagent.

Target gene | siRNA no. | G2 robust z-score | G2 cells, % of GMNN control | raw share of cells in G2 (%)
RANBP17 (RAN binding protein 17) | 1 | 0.538 | 6.75 | 8.44
RANBP17 (RAN binding protein 17) | 2 | 1.11 | 10.7 | 8.15
RANBP17 (RAN binding protein 17) | 3 | 0.0257 | 3.15 | 5.37
INTS6 (integrator complex subunit 6) | 1 | 0.972 | 9.8 | 10.6
INTS6 (integrator complex subunit 6) | 2 | 0.763 | 8.33 | 6.95
INTS6 (integrator complex subunit 6) | 3 | 1.74 | 15.2 | 8.97
ZFAND5 (zinc finger AN1-type containing 5) | 1 | 0.206 | 4.42 | 5.91
ZFAND5 (zinc finger AN1-type containing 5) | 2 | 0.655 | 7.58 | 6.97
ZFAND5 (zinc finger AN1-type containing 5) | 3 | 1.69 | 14.8 | 11.9
SHOC1 (shortage in chiasmata 1) | 1 | 2.96 | 23.8 | 12.1
SHOC1 (shortage in chiasmata 1) | 2 | -0.19 | 1.63 | 3.51
SHOC1 (shortage in chiasmata 1) | 3 | 0.529 | 6.69 | 4.88
ASNSD1 (asparagine synthetase domain containing 1) | 1 | -0.0227 | 2.81 | 4.88
ASNSD1 (asparagine synthetase domain containing 1) | 2 | -0.827 | -2.85 | 4.66
ASNSD1 (asparagine synthetase domain containing 1) | 3 | 0.832 | 8.82 | 7.5
PSME3 (proteasome activator subunit 3) | 1 | -0.658 | -1.66 | 4.58
PSME3 (proteasome activator subunit 3) | 2 | 0.902 | 9.32 | 7.83
PSME3 (proteasome activator subunit 3) | 3 | 2.76 | 22.4 | 11.5
MED26 (mediator complex subunit 26) | 1 | -0.524 | -0.72 | 3.29
MED26 (mediator complex subunit 26) | 2 | 1.28 | 12 | 11.3
MED26 (mediator complex subunit 26) | 3 | 0.453 | 6.16 | 5.92
TMEM132B (transmembrane protein 132B) | 1 | 1.69 | 14.9 | 10.1
TMEM132B (transmembrane protein 132B) | 2 | -0.995 | -4.03 | 2.13
TMEM132B (transmembrane protein 132B) | 3 | -0.142 | 1.97 | 2.39
DOCK11 (dedicator of cytokinesis 11) | 1 | -0.613 | -1.34 | 5.32
DOCK11 (dedicator of cytokinesis 11) | 2 | 5.14 (active) | 39.1 | 19
DOCK11 (dedicator of cytokinesis 11) | 3 | 0.709 | 7.95 | 8.04
SFTA2 (surfactant associated 2) | 1 | -0.744 | -2.27 | 2.56
SFTA2 (surfactant associated 2) | 2 | -0.0193 | 2.83 | 4.15
SFTA2 (surfactant associated 2) | 3 | 0.419 | 5.91 | 6.51
CCDC121 (coiled-coil domain containing 121) | 1 | 0.0765 | 3.51 | 6.11
CCDC121 (coiled-coil domain containing 121) | 2 | 0.927 | 9.49 | 8.86
CCDC121 (coiled-coil domain containing 121) | 3 | -1.02 | -4.18 | 1.59
OR4X1 (olfactory receptor family 4 subfamily X member 1) | 1 | 2.19 | 18.4 | 10.1
OR4X1 (olfactory receptor family 4 subfamily X member 1) | 2 | -0.741 | -2.25 | 2.43
OR4X1 (olfactory receptor family 4 subfamily X member 1) | 3 | -0.811 | -2.74 | 3.46
TMEM181 (transmembrane protein 181) | 1 | 2.52 | 20.7 | 12.5
TMEM181 (transmembrane protein 181) | 2 | -0.498 | -0.537 | 4.2
TMEM181 (transmembrane protein 181) | 3 | -0.366 | 0.393 | 3.15
ITPKB (inositol-trisphosphate 3-kinase B) | 1 | 0.401 | 5.79 | 7.52
ITPKB (inositol-trisphosphate 3-kinase B) | 2 | -1.66 | -8.7 | 2.48
ITPKB (inositol-trisphosphate 3-kinase B) | 3 | -1.3 | -6.19 | 1.84
PSMD6 (proteasome 26S subunit, non-ATPase 6) | 1 | 0.0425 | 3.27 | 6.44
PSMD6 (proteasome 26S subunit, non-ATPase 6) | 2 | 1.38 | 12.7 | 9.89
PSMD6 (proteasome 26S subunit, non-ATPase 6) | 3 | -0.579 | -1.1 | 2.82
POSTN (periostin) | 1 | 2.41 | 19.9 | 14.4
POSTN (periostin) | 2 | -0.157 | 1.86 | 4.44
POSTN (periostin) | 3 | 0.721 | 8.04 | 9.65
CASP14 (caspase 14) | 1 | -0.507 | -0.602 | 5.35
CASP14 (caspase 14) | 2 | 3.09 | 24.7 | 13.6
CASP14 (caspase 14) | 3 | -0.58 | -1.11 | 3.49
ZNHIT3 (zinc finger HIT-type containing 3) | 1 | 1.52 | 13.7 | 8.08
ZNHIT3 (zinc finger HIT-type containing 3) | 2 | 0.949 | 9.64 | 10.3
ZNHIT3 (zinc finger HIT-type containing 3) | 3 | -0.4 | 0.156 | 3.4
DCAF10 (DDB1 and CUL4 associated factor 10) | 1 | -0.782 | -2.54 | 3.48
DCAF10 (DDB1 and CUL4 associated factor 10) | 2 | 0.462 | 6.22 | 7.39
DCAF10 (DDB1 and CUL4 associated factor 10) | 3 | -0.381 | 0.286 | 2.77
PABPC3 (poly(A) binding protein cytoplasmic 3) | 1 | 1.2 | 11.4 | 9.5
PABPC3 (poly(A) binding protein cytoplasmic 3) | 2 | 0.477 | 6.32 | 7.32
PABPC3 (poly(A) binding protein cytoplasmic 3) | 3 | -0.743 | -2.26 | 2.43
LINC01559 (long independently transcribed non-coding RNA 1559) | 1 | 0.108 | 3.73 | 4.4
LINC01559 (long independently transcribed non-coding RNA 1559) | 2 | -0.0573 | 2.56 | 4.58
LINC01559 (long independently transcribed non-coding RNA 1559) | 3 | 1.25 | 11.8 | 7.6
NRXN1 (neurexin 1) | 1 | -0.02 | 2.83 | 6.27
NRXN1 (neurexin 1) | 2 | 0.188 | 4.29 | 4.67
NRXN1 (neurexin 1) | 3 | 0.376 | 5.61 | 7.03
PBX4 (PBX homeobox 4) | 1 | 6.41 (active) | 48.1 | 27.6
PBX4 (PBX homeobox 4) | 2 | -0.485 | -0.445 | 2.64
PBX4 (PBX homeobox 4) | 3 | -0.339 | 0.581 | 3.81

4 neighbouring reagents already listed, quoted:
Target gene | siRNA no. | G2 robust z-score | G2 cells, % of GMNN control | raw share of cells in G2 (%)
INTS6 (integrator complex subunit 6) | 3 | 1.74 | 15.2 | 8.97
ZFAND5 (zinc finger AN1-type containing 5) | 1 | 0.206 | 4.42 | 5.91
ZFAND5 (zinc finger AN1-type containing 5) | 2 | 0.655 | 7.58 | 6.97
ZFAND5 (zinc finger AN1-type containing 5) | 3 | 1.69 | 14.8 | 11.9
